Test system: SCC-12
Assay: MTT antiproliferative/cytotoxicity assay, SCC-12
Assay type: cell-based, human
Settings: IC50 HaCaT divided by IC50 SCC-12
Method: Human-derived GFP-expressing melanoma A375 and epidermoid carcinoma A431 cell lines were purchased from Angio-Proteomie (Boston, MA). Human melanoma carcinoma SK-MEL-28 and human immortalised keratinocytes (HaCaT) cell lines were acquired from American Type Culture Collection (ATCC; Manassas, VA). […] The growth media of incubated cells were changed every 2–3 days until they attained 70–80% confluence, after which they were sub-cultured for experiments and re-passaging. DMSO was used as the vehicle to prepare a 10 mM stock solution of the test compounds.
Stock solutions (10 mM) were prepared by dissolving each compound to be screened in DMSO.

## N.N.[Cl][Pt][Cl] [Cisplatin, cisplatin, reference compound]
  selectivity index (SI) SCC-12: 0.8
Listed as cisplatin
  selectivity index (SI) SCC-12: 0.4

Reference: article PMC10187093, “Synthesis, in silico modelling, and in vitro biological evaluation of substituted pyrazole derivatives as potential anti-skin cancer, anti-tyrosinase, and antioxidant agents” (Journal of Enzyme Inhibition and Medicinal Chemistry, 2023)
